Test results as given in PMC12646314, “Structure and encapsulation of carbonic anhydrase within the α-carboxysome” (Proceedings of the National Academy of Sciences of the …, 2025).
These are yes or no findings as the source states them, for the method shown. For some of these results: Binding seen in cells or lysates may run through a third protein. Some entries that bind do so weakly or less than the wild type. For some of these results: Where a sequence is shown, tags or fusion partners need not be part of it. Values belong to the molecule of their own block, whether it stands above or below them.

The chains behind the UniProt entries cited, without tags or fusion partners.
UniProt O85040: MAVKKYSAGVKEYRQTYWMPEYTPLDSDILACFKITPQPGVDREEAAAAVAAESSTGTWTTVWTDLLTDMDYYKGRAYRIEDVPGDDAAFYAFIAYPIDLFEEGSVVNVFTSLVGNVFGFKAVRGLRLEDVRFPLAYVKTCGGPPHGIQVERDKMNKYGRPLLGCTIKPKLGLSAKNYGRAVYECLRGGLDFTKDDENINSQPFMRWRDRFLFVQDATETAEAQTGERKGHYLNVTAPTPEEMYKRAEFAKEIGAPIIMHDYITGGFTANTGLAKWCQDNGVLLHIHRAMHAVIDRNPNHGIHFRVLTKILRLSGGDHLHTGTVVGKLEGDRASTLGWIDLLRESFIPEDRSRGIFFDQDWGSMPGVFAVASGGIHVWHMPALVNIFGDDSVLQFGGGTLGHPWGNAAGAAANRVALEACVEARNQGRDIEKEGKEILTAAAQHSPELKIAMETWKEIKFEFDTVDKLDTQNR

Key:
[1] = target: T1, StrepII-CsoSCA (Halothiobacillus neapolitanus) (UniProt O85042); test: pull-down; in vivo pull-down: StrepII-CsoSCA coexpressed with minishells and Rubisco, lysate on StrepTactin XT 4Flow high capacity, Buffer W, eluted with Buffer BXT, immunoblot
T1 sequence: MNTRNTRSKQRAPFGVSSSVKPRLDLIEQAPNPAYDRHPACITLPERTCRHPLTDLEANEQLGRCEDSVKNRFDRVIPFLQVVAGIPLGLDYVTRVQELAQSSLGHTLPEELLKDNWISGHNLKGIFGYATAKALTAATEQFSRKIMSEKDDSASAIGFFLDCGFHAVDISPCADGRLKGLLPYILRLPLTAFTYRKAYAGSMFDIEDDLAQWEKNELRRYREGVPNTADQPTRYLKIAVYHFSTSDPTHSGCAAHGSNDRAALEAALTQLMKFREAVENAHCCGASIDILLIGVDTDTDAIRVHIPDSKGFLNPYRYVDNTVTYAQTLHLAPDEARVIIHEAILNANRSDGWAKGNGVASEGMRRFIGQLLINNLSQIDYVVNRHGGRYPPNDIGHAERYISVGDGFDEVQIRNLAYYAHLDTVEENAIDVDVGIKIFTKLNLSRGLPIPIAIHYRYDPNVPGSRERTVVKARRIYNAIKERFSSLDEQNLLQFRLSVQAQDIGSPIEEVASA

[2] = target: T2, CsoSCA-His6 (CsoSCA fused to a C-terminal His6 tag) (Halothiobacillus neapolitanus) (UniProt O85042); test: co-purification with assembled minishells (sucrose cushion and gradient, anion exchange), immunoblot; minishells (lacking CsoS2) coexpressed with CsoSCA and Rubisco; CbbL in purified minishells by immunoblot, against minishells lacking CsoSCA
T2 sequence: T1 sequence

[3] = target: T3, CsoS1A (the major shell hexamer) (Halothiobacillus neapolitanus) (UniProt P45689); test: cryo-EM structure; single-particle cryo-EM of purified T = 4 minishell/CsoSCA^ΔC (2.36 Å symmetry relaxed) and minishell/CsoSCA-C (3.05 Å); internal density seen at low contour, disordered
T3 sequence: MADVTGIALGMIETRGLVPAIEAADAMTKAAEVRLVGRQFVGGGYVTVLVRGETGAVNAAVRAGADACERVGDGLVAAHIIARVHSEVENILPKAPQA

[4] = target: T4, StrepII-CsoSCA-His6 (Halothiobacillus neapolitanus), O85042; test: pull-down; in vivo pull-down: StrepII-CsoSCA-His6 coexpressed with minishells, lysate on StrepTactinXT 4Flow, Buffer W, eluted with Buffer BXT, immunoblot; conditions: remark: other sources report otherwise
T4 chain: T1 sequence

[5] = target: T5, StrepII-CsoSCA (Halothiobacillus neapolitanus), O85042; test: pull-down; in vivo pull-down: StrepII-CsoSCA coexpressed with minishells and Rubisco, lysate on StrepTactin XT 4Flow high capacity, Buffer W, eluted with Buffer BXT, immunoblot; conditions: remark: other sources report otherwise
T5 chain: T1 sequence

[6] = target: T6, CsoS4A-CsoS1A minishell (Construct 4, S4A-S1A) (Halothiobacillus neapolitanus) (UniProt O85043+P45689); test: co-purification with assembled minishells (sucrose cushion and gradient, anion exchange), immunoblot; CsoSCA constructs coexpressed with minishell constructs in E. coli TOP10; minishells purified; samples normalised to CsoS1A; anti-His blot
T6 sequence 1: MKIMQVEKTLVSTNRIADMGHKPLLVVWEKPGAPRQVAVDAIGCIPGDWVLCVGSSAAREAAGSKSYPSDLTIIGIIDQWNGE
T6 sequence 2: T3 sequence

binding [1]: binds
binding [2]: binds
Molecule: CbbL (the large subunit of Rubisco) (from UniProt O85040 1-473)

binding [3]: binds
B1: CsoS4A (shell pentamer) (natural protein, Halothiobacillus neapolitanus)
chain: T6 sequence 1
notes: CsoS4A, alpha-carboxysome shell vertex protein of H. neapolitanus; also called CsoS4A pentamer; source: E. coli TOP10, expressed from the minishell construct, in purified minishells

The next lines start with the molecule.

B2: CsoS1A (the major shell hexamer) (natural protein, Halothiobacillus neapolitanus)
chain: T3 sequence
notes: CsoS1A, major alpha-carboxysome shell protein of H. neapolitanus; also called CsoS1A shell hexamer; source: E. coli TOP10, expressed from the minishell construct; in lysate (pull-down) and in purified minishells (cryo-EM)
binding [4]: binds
binding [5]: binds

B3: CbbS-His6 (the small subunit of Rubisco with a C-terminal His6 tag) (protein, UniProt P45686 1-110)
chain: MAEMQDYKQSLKYETFSYLPPMNAERIRAQIKYAIAQGWSPGIEHVEVKNSMNQYWYMWKLPFFGEQNVDNVLAEIEACRSAYPTHQVKLVAYDNYAQSLGLAFVVYRGN
binding [1]: binds

B4: CsoSCA-His6 (CsoSCA fused to a C-terminal His6 tag) (enzyme, Halothiobacillus neapolitanus, UniProt O85042 1-514, looked up)
chain: T1 sequence
notes: CsoSCA of H. neapolitanus, UniProt O85042; called full-length CsoSCA in the discussion; also called full-length CsoSCA; source: E. coli TOP10, coexpressed with minishell constructs, co-purified with minishells; not shown: His6, C-terminal, kept
binding [6]: binds
